The supplement of paper PMC12067093, “Discovery and optimisation of a covalent ligand for TRIM25 and its application to targeted protein ubiquitination” (Chemical Science, 2025)
Some of the results follow.

By UniProt entry, the sequences of proteins in these tests, tags left out. Where a name states a change or a piece, a line headed by the entry shows the natural chain unless it says otherwise.
UniProt P07741: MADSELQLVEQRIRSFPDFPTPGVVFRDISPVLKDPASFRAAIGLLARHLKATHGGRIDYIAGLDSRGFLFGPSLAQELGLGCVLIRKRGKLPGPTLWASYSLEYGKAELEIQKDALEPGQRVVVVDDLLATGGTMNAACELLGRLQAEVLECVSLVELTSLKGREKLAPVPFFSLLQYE
UniProt Q92974: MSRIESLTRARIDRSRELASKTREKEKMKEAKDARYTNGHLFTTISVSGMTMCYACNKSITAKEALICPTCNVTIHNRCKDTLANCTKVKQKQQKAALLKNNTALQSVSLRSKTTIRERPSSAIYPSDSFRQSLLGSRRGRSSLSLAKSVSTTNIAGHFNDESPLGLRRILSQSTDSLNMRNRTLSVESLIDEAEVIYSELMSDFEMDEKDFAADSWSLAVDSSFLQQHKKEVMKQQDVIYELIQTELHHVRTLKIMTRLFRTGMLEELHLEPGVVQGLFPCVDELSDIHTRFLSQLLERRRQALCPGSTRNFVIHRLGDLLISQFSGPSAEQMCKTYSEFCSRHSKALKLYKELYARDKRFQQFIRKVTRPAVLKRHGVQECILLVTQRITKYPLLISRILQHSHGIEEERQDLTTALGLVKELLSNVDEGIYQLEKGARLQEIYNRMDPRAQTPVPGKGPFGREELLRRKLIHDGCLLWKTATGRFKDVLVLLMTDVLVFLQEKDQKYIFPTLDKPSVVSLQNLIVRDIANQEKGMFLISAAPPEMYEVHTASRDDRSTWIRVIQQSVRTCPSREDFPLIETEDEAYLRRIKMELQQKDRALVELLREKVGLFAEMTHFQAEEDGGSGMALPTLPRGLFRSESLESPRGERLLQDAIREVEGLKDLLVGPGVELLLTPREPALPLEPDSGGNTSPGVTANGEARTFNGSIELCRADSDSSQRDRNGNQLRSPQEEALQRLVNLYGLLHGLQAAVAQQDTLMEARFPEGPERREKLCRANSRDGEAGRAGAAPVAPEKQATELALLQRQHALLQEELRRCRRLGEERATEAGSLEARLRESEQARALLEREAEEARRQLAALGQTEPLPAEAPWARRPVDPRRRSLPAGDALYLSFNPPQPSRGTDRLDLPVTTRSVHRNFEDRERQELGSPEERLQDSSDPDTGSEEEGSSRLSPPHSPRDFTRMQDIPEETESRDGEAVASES
UniProt O95376: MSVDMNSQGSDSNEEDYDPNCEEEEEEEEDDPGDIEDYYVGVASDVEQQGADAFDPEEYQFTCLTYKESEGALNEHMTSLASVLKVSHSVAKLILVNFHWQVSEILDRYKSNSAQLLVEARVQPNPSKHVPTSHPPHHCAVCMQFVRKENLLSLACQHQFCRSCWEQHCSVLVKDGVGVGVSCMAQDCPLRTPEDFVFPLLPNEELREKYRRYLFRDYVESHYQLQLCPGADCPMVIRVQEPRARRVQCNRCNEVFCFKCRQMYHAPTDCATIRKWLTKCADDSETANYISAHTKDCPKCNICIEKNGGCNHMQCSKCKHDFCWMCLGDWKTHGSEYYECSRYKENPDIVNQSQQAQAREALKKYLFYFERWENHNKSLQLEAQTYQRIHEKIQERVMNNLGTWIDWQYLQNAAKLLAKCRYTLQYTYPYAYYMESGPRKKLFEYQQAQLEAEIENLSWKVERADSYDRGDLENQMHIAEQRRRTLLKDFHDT
UniProt Q9UKG1: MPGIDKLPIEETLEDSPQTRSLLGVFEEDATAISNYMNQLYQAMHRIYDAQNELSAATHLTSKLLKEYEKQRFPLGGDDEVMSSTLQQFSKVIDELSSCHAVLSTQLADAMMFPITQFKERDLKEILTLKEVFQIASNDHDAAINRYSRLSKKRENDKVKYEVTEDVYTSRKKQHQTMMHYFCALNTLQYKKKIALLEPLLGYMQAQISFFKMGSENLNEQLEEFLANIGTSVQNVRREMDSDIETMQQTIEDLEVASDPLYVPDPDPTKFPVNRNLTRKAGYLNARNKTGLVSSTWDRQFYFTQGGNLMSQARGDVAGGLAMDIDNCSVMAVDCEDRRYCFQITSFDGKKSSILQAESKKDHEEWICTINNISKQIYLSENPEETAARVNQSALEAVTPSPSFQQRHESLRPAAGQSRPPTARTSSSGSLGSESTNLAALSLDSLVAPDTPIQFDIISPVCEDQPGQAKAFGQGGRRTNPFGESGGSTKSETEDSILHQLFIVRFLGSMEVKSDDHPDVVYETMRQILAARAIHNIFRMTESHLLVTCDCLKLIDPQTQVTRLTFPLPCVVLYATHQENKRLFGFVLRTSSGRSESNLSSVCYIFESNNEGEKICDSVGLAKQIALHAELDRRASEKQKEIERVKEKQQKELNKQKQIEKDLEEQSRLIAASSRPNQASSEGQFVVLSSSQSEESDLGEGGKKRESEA
UniProt P52566: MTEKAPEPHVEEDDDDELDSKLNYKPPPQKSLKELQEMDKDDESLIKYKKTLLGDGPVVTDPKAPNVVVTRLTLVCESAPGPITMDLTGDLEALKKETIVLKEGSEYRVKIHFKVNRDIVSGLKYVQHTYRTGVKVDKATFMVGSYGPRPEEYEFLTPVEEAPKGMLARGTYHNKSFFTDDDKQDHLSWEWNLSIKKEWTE
UniProt Q15052: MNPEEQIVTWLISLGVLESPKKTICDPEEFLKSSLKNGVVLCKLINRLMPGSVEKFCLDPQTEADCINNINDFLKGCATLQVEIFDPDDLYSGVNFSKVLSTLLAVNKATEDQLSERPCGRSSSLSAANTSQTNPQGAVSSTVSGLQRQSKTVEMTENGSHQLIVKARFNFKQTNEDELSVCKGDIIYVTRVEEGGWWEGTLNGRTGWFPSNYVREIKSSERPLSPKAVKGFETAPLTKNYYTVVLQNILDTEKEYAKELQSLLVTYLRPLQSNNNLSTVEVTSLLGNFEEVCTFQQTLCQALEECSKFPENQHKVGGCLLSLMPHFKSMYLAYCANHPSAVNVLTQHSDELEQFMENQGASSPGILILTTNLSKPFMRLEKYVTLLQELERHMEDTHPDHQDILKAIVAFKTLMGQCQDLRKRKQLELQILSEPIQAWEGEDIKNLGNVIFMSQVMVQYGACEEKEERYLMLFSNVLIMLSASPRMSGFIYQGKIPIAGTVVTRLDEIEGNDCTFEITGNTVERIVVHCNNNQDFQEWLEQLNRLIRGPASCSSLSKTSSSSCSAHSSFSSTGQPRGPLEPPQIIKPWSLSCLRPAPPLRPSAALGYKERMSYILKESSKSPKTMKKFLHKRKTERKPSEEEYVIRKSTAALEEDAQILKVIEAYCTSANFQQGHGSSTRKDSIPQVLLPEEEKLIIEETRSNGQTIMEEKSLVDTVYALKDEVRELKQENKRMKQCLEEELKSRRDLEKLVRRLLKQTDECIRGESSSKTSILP
UniProt Q8IUR7, whole entry, looked up: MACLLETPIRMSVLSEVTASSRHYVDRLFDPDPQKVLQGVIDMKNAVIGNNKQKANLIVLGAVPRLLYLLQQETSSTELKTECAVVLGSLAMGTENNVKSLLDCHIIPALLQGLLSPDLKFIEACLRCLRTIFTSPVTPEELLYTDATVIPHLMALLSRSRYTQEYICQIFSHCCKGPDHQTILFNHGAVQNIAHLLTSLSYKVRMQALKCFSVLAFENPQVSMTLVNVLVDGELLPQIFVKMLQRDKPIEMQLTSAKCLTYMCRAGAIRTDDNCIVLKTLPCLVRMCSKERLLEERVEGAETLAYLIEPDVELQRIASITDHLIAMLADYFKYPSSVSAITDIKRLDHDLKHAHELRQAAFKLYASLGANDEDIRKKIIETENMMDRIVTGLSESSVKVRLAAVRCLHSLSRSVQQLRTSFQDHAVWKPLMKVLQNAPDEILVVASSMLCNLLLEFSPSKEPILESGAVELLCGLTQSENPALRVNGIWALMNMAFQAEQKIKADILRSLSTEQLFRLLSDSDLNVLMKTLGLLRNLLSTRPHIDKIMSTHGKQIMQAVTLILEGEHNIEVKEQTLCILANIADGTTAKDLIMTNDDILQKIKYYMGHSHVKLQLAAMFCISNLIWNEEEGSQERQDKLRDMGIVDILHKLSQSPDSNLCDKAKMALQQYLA
UniProt P98171: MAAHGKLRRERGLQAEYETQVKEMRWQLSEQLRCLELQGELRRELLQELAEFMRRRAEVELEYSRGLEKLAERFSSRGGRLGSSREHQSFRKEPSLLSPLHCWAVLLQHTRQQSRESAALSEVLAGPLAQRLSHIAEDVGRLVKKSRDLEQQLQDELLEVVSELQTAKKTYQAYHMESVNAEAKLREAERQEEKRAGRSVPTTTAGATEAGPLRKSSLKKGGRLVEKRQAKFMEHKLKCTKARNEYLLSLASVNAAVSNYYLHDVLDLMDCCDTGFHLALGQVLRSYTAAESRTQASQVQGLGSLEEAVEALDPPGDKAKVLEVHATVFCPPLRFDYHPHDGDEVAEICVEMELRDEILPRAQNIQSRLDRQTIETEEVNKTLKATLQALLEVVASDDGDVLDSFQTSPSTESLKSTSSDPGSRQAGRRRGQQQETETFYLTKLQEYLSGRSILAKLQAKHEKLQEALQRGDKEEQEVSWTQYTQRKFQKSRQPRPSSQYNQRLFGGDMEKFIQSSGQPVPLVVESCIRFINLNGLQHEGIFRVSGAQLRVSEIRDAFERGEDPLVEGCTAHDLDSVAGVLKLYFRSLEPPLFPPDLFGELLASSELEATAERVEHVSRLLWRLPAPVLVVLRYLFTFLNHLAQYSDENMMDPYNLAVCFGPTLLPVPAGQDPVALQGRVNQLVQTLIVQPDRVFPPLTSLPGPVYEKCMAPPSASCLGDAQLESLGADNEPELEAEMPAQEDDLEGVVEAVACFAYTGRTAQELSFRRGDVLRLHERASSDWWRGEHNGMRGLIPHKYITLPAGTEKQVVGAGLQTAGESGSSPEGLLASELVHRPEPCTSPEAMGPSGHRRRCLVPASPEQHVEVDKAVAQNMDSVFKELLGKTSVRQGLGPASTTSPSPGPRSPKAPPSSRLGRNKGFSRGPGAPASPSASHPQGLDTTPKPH
UniProt Q8TER5, whole entry, looked up: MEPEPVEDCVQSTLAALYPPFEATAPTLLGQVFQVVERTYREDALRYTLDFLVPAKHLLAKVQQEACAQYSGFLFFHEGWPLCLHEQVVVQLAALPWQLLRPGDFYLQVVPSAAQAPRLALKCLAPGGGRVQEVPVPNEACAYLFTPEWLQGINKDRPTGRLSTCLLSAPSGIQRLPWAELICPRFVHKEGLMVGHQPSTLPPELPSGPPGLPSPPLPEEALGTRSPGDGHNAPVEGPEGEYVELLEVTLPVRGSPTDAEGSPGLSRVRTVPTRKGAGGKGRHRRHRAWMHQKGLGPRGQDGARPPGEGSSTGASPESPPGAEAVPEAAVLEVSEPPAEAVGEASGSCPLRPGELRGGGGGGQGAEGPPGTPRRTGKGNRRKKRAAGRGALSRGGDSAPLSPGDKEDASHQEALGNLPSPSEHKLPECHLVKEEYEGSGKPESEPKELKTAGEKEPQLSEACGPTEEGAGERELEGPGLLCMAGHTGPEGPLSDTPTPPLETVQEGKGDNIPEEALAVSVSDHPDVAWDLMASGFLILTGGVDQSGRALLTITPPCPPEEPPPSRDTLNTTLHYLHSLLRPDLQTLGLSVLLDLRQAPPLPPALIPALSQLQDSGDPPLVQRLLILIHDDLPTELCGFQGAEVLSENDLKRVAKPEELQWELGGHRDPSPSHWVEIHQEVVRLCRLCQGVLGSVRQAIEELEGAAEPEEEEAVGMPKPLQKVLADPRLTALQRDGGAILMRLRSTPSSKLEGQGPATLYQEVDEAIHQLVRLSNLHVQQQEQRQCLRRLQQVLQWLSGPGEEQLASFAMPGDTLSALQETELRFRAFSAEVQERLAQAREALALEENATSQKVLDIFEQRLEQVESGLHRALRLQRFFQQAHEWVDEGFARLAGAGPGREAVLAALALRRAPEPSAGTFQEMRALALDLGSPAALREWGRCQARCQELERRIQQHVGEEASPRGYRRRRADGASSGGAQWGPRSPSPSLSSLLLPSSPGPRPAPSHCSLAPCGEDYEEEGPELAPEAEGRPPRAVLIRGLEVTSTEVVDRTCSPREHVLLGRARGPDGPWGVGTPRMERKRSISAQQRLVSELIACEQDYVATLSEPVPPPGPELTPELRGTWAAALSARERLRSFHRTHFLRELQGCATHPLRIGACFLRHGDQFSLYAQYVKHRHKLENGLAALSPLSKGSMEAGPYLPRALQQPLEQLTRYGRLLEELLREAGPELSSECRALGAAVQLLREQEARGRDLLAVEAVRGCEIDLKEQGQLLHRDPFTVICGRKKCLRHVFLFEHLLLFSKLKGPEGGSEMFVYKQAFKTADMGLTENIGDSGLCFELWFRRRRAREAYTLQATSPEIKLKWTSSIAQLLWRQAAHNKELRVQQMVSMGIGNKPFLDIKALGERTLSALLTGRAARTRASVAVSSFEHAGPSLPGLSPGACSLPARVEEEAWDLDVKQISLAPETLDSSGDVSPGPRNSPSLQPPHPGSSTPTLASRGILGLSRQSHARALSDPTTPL

compound: Cc1cc(ccc1-c1ccccc1)C(=O)N1CCCN(CC1)C(=O)CCl [compound 10]; experiment: probe-labelled cysteine peptide fold change vs DMSO (competition) (log2 fold change); higher = less target engagement (more negative = stronger competition); details: 50 µM; THP-1; incubation time: 4 h
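Also: competitive profiling in live THP-1 cells: cysteine peptides tagged with an iodoacetamide desthiobiotin (IA-DTB) probe, intensity after compound treatment relative to DMSO-treated cells.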

Row | Target | probe-labelled cysteine peptide fold change
1 | APRT_P07741_83_GFLFGPSLAQELGLGCVLIRK (UniProt P07741) | -0.44
2 | ARMCX3_Q9UH62_52_MAEGGSGDVDDAGDCSGAR (UniProt Q9UH62) | -0.35
3 | ARHGEF2_Q92974_68+71_EALICPTCNVTIHNR (UniProt Q92974) | -0.329
4 | ARHGEF18_Q6ZSZ5_295_ECVNGHQLLQGTFSGPSSCPLCGKPFLSSASLK (UniProt Q6ZSZ5) | -0.0988
5 | ARHGEF2_Q92974_56_YTNGHLFTTISVSGMTMCYACNK (UniProt Q92974) | -0.217
6 | ARHGEF1_Q92888_537_FCAFVQEAESRPR (UniProt Q92888) | -0.0828
7 | ARIH2_O95376_326_HDFCWMCLGDWK (UniProt O95376) | 0.119
8 | ARHGAP17_Q68EM7_305_AALDCSTSHLDEFYSDPHAVAGALK (UniProt Q68EM7) | -0.0345
9 | ARHGAP45_Q92619_136_ECVLRDDLLEAR (UniProt Q92619) | -0.128
10 | ARL3_P36405_118_LSCVPVLIFANK (UniProt P36405) | 0.052
11 | ARHGEF18_Q6ZSZ5_692_QLHLEGMLCWK (UniProt Q6ZSZ5) | 0.011
12 | ARHGAP18_Q8N392_323_DSGLFCVPLTALLEQDQR (UniProt Q8N392) | -0.00525
13 | ARPC1B_O15143_70_IVTCGTDR (UniProt O15143) | 0.116
14 | ARIH2_O95376_270_QMYHAPTDCATIR (UniProt O95376) | 0.0258
15 | APPL1_Q9UKG1_549_MTESHLLVTCDCLK (UniProt Q9UKG1) | 0.317
16 | ARHGEF2_Q92974_306_RQALCPGSTR (UniProt Q92974) | 0.000311
17 | ARHGDIB_P52566_76_LTLVCESAPGPITMDLTGDLEALKK (UniProt P52566) | 0.372
18 | ARHGAP17_Q68EM7_190_EEMDEAGNKVEQCK (UniProt Q68EM7) | 0.151
19 | ARHGEF6_Q15052_564_TSSSSCSAHSSFSSTGQPR (UniProt Q15052) | -0.422
20 | ARMC8_Q8IUR7_3_ACLLETPIR (UniProt Q8IUR7) | 0.166

Row | Target | probe-labelled cysteine peptide fold change
21 | ARIH1_Q9Y4X5_304_QFCFNCGENWHDPVK (UniProt Q9Y4X5) | -0.0254
22 | ARRB1_P49407_59_RVYVTLTCAFR (UniProt P49407) | 0.047
23 | ARHGAP27_Q6ZUM4_703_DQVFGCALAALCER (UniProt Q6ZUM4) | 0.139
24 | ARHGEF10_O15013_959_ILCMLYVPVEEK (UniProt O15013) | 0.221
25 | ARHGAP45_Q92619_324_IAHNCR (UniProt Q92619) | 0.138
26 | ARHGAP4_P98171_569_GEDPLVEGCTAHDLDSVAGVLK (UniProt P98171) | -0.0718
27 | APPL1_Q9UKG1_570_LTFPLPCVVLYATHQENK (UniProt Q9UKG1) | 0.17
28 | ARMC8_Q8IUR7_264_CLTYMCR (UniProt Q8IUR7) | -0.117
29 | ARID1B_Q8NFD5_2074_LVLETLCK (UniProt Q8NFD5) | 0.248
30 | ARNT_P27540_265_RSFICR (UniProt P27540) | 0.0564
31 | ARHGEF2_Q92974_478_LIHDGCLLWK (UniProt Q92974) | -0.0351
32 | ARL2_P36404_153_SHHWCIQGCSAVTGENLLPGIDWLLDDISSR (UniProt P36404) | 0.198
33 | ARHGEF12_Q9NZN5_921_FQTFVQDAESNPLCR (UniProt Q9NZN5) | 0.000695
34 | ARPC2_O15144_120_RNCFASVFEK (UniProt O15144) | -0.105
35 | ARHGAP4_P98171_102_KEPSLLSPLHCWAVLLQHTR (UniProt P98171) | -0.0475
36 | ARPC1B_O15143_346_CSQFCTTGMDGGMSIWDVK (UniProt O15143) | -0.0673
37 | ARHGEF2_Q92974_342_TYSEFCSR (UniProt Q92974) | 0.0127
38 | ARHGEF40_Q8TER5_1262_GCEIDLK (UniProt Q8TER5) | -0.0894
39 | ARHGEF6_Q15052_57+66_FCLDPQTEADCINNINDFLK (UniProt Q15052) | -0.192
40 | AQR_O60306_997_SYEEDMEIAEGCFR (UniProt O60306) | 0.0038

Not a retest: an excerpt of the list.
Row | Target | probe-labelled cysteine peptide fold change
37 | ARHGEF2_Q92974_342_TYSEFCSR (UniProt Q92974) | 0.0127
38 | ARHGEF40_Q8TER5_1262_GCEIDLK (UniProt Q8TER5) | -0.0894
